# Experimental data from the supplement of paper PMC3682954.
# Counter-ions that a name gives are not always drawn. ± gives the standard deviation of the averaged measurements. The list shows a part of the results. Most values come without repeats; read them as rough.
# System: RAW 264.7
# Assay: HMGB1-induced TNF-alpha production relative to HMGB1-stimulated control; higher = more TNF-alpha secretion (less inhibition)
# Conditions: stimulus: HMGB1 5 ug/ml, 18 h
# [1] = compound concentration: 1 ug/ml
Compound,HMGB1-induced TNF-alpha production (compound concentration: 3 uM) [%],HMGB1-induced TNF-alpha production [1] [%]
CCCCCC(O)c1cccc(OCc2ccc3ccccc3n2)c1 (configuration not stated),93,–
CCCCNc1cc(C(=O)O)cc(S(N)(=O)=O)c1Oc1ccccc1 [Bumetanide],96.2 ± 22,–
CCCCNc1cc(C(=O)O)cc(S(N)(=O)=O)c1Oc1ccccc1,88.5,–
CNC(=O)c1c(I)c(C(=O)NCC(=O)Nc2c(I)c(C(=O)O)c(I)c(C(=O)NCCO)c2I)c(I)c(N(C)C(C)=O)c1I [Ioxaglic acid],141,–
CC(=O)Oc1ccccc1C(=O)Oc1ccccc1C(=O)O [Acetylsalicylsalicylic acid],71.2,–
O=c1ncc(F)c[nH]1 [5-fluoro-2-pyrimidone],107,–
CCN(CC)CCOC(=O)c1ccc(N)cc1 [Procaine hydrochloride],87.5 ± 27,–
CCN(CC)CCOC(=O)c1ccc(N)cc1,88.6,–
Cn1ccnc1 [1-Methylimidazole],107,–
CCOC(=O)[C@@H](N)Cc1ccccc1 [Phenylalanine ethyl ester hydrochloride],–,65.3
NC1CCN(O)C1=O (racemic),96.5,–
CC[C@H](C)C(=O)O[C@H]1C[C@@H](C)C=C2C=C[C@H](C)[C@H](CC[C@@H]3C[C@@H](O)CC(=O)O3)[C@H]21 [Lovastatin],115 ± 40,–
CC[C@H](C)C(=O)O[C@H]1C[C@@H](C)C=C2C=C[C@H](C)[C@H](CC[C@@H]3C[C@@H](O)CC(=O)O3)[C@H]21 [Mevinolin; Lovastatin],–,86.3
CC[C@H](C)C(=O)O[C@H]1C[C@@H](C)C=C2C=C[C@H](C)[C@H](CC[C@@H]3C[C@@H](O)CC(=O)O3)[C@H]21,91.9,–
Cc1c(C)c2c(c(C)c1O)CCC(C)(C(=O)O)O2 (configuration not stated) [Trolox],54,–
COc1cc2oc(-c3ccccc3)cc(=O)c2cc1OC,–,65.9
O=C1C2OCC(O2)[C@@H]2[C@@H]1[C@@H]1c3ccccc3C=CN1[C@H]2C(=O)c1ccccc1 (some centres not stated),–,39.9
CC(=O)CCCCn1cnc2c1c(=O)n(C)c(=O)n2C,97,–
CC(=O)N[C@@H](CS)C(=O)O [Acetylcysteine],91.5,–
CC(=O)N[C@@H](CS)C(=O)O,85.3,–
CC(=O)N[C@@H](CS)C(=O)O [N-Acetyl-L-Cysteine],87.6,–
"O=c1cc(-c2ccccc2)[nH]c2nc(Cl)ccc12 [7-Chloro-4-hydroxy-2-phenyl-1,8-naphthyridine]",84.6,–
O=c1[nH]c(=O)c2nc3ccccc3nc2[nH]1 [Alloxazine],95,–
N#C/C(=C\c1ccc(O)c(O)c1)C(=O)NCCc1ccccc1 [Tyrphostin AG 698],131,–

# Reformatted: entries from further up.
Compound | HMGB1-induced TNF-alpha production (compound concentration: 3 uM) [%] | HMGB1-induced TNF-alpha production [1] [%]
CC(=O)Oc1ccccc1C(=O)Oc1ccccc1C(=O)O [Acetylsalicylsalicylic acid] | 71.2 | –
CCN(CC)CCOC(=O)c1ccc(N)cc1 | 88.6 | –
CCOC(=O)[C@@H](N)Cc1ccccc1 [Phenylalanine ethyl ester hydrochloride] | – | 65.3
Cc1c(C)c2c(c(C)c1O)CCC(C)(C(=O)O)O2 (configuration not stated) [Trolox] | 54 | –
CC(=O)N[C@@H](CS)C(=O)O [N-Acetyl-L-Cysteine] | 87.6 | –

# Later entries.

Compound,HMGB1-induced TNF-alpha production (compound concentration: 3 uM) [%],HMGB1-induced TNF-alpha production [1] [%]
CC(=O)O[C@H]1C[C@@]2(C)[C@@H](C[C@@H](O)[C@H]3[C@@]4(C)CC[C@@H](O)[C@@H](C)[C@@H]4CC[C@@]32C)/C1=C(\CCC=C(C)C)C(=O)O [Fusidic acid sodium salt],47.6,–
CC(=O)O[C@H]1C[C@@]2(C)[C@@H](C[C@@H](O)[C@H]3[C@@]4(C)CC[C@@H](O)[C@@H](C)[C@@H]4CC[C@@]32C)/C1=C(\CCC=C(C)C)C(=O)O [Fusidic acid sodium],82.2,–
CC(=O)O[C@H]1C[C@@]2(C)[C@@H](C[C@@H](O)[C@H]3[C@@]4(C)CC[C@@H](O)[C@@H](C)[C@@H]4CC[C@@]32C)/C1=C(\CCC=C(C)C)C(=O)O,73.8,–
O=c1[nH]c2cc(C(F)(F)F)ccc2n1-c1cc(C(F)(F)F)ccc1O,103,–
COc1cc(C2Oc3cc([C@H]4Oc5cc(O)cc(O)c5C(=O)[C@@H]4O)ccc3OC2CO)ccc1O (some centres not stated),77.9,–
O=c1cc(-c2ccccc2)oc2cc(O)c(O)c(O)c12 [Baicalein],–,68.3
"COc1ccc(-c2oc3cc(OC)ccc3c(=O)c2O)cc1 [4',7-Dimethoxy-3-hydroxyflavone]",–,78.4
CC(C)CCCC(C)N (configuration not stated),90.8,–
CN(C)CCn1nnnc1SCC1=C(C(=O)O)N2C(=O)[C@@H](NC(=O)Cc3csc(N)n3)[C@H]2SC1 [Cefotiam hydrochloride],88.6,–
N[C@@H](CCCC(=O)O)C(=O)O [L-2-aminoadipic acid],83.5,–
CC1(C)C[C@@H]1C(=O)N/C(=C\CCCCSC[C@H](N)C(=O)O)C(=O)O [Cilastatin],93,–
CC1(C)C[C@@H]1C(=O)N/C(=C\CCCCSC[C@H](N)C(=O)O)C(=O)O,93.3,–
Cc1cc(Cn2cnc3c2C[C@@H](C(=O)O)N(C(=O)C(c2ccccc2)c2ccccc2)C3)ccc1N,77.5,–
CCCCCCC(=O)OC1CC(C)(C)NC(C)(C)C1 [TMPH hydrochloride],112,–
CCCCCC(=O)O[C@]1(C(C)=O)CC[C@H]2[C@@H]3CCC4=CC(=O)CC[C@]4(C)[C@H]3CC[C@@]21C,83.5,–
Oc1cc2c(cc1O)CN(C(=S)NCCc1ccc(Cl)cc1)CCC2 [Capsazepine],81.5,–
Cc1c(C)c2c(c(C)c1OC(=O)CCC(=O)O)CC[C@@](C)(CCC[C@H](C)CCC[C@H](C)CCCC(C)C)O2 [(+)-alpha-Tocopherol acid succinate],–,67.4
C[C@@H]1C[C@H]2[C@@H]3C[C@H](F)C4=CC(=O)C=C[C@]4(C)[C@@]3(Cl)[C@@H](O)C[C@]2(C)[C@H]1C(=O)COC(=O)C(C)(C)C [Clocortolone pivalate],50.8,–
Nc1nc(Cl)nc2c1ncn2[C@@H]1O[C@H](COP(=O)(O)OP(=O)(O)OP(=O)(O)O)[C@H](O)C1O (some centres not stated) [2-Chloroadenosine triphosphate tetrasodium],76,–
NC[C@@H](O)c1ccc(O)c(O)c1 [L(-)-Norepinephrine bitartrate],56.1,–
OC(c1cc(C(F)(F)F)nc2c(C(F)(F)F)cccc12)C1CCCCN1 (configuration not stated),93,–
OC(c1cc(C(F)(F)F)nc2c(C(F)(F)F)cccc12)C1CCCCN1 (configuration not stated) [Mefloquine hydrochloride],48.2,–
CNCCCC12CCC(c3ccccc31)c1ccccc12 [Maprotiline],93.5,–
CNCCCC12CCC(c3ccccc31)c1ccccc12 [Maprotilline HCl],105,–

Compound,HMGB1-induced TNF-alpha production (compound concentration: 3 uM) [%],HMGB1-induced TNF-alpha production [1] [%]
CNCCCC12CCC(c3ccccc31)c1ccccc12,89.9,–
CNCCCC12CCC(c3ccccc31)c1ccccc12 [Maprotiline hydrochloride],76 ± 44,–
CC[C@H]1OC(=O)C[C@@H](O)[C@H](C)[C@@H](O[C@@H]2O[C@H](C)[C@@H](O)[C@H](N(C)C)[C@H]2O)[C@@H](CCN2C[C@H](C)C[C@H](C)C2)C[C@@H](C)C(=O)/C=C/C(C)=C/[C@@H]1CO[C@@H]1O[C@H](C)[C@@H](O)[C@@H](OC)[C@H]1OC,91.1,–
O=C1Cc2c([nH]c3ccc(Br)cc23)-c2ccccc2N1 [Kenpaullone],134,–
CO/N=C(\C(=O)N[C@@H]1C(=O)N2C(C(=O)[O-])=C(C[N+]3(C)CCCC3)CS[C@H]12)c1csc(N)n1 [Cefepime],116,–
Cc1coc2c1C(=O)C(=O)c1c-2ccc2c1CCCC2(C)C [Tanshinone IIA],75.7,–
Cc1coc2c1C(=O)C(=O)c1c-2ccc2c1CCCC2(C)C,88.9,–
C[C@]12C=CC(=O)C=C1CC[C@H]1[C@@H]3C[C@@H](O)[C@](O)(C(=O)CO)[C@@]3(C)C[C@H](O)[C@@]12F [Triamcinolone],40.1 ± 9.6,–
C[C@]12C=CC(=O)C=C1CC[C@H]1[C@@H]3C[C@@H](O)[C@](O)(C(=O)CO)[C@@]3(C)C[C@H](O)[C@@]12F,49.1,–
CC1(C)O[C@@H]2C[C@H]3[C@@H]4CCC5=CC(=O)CC[C@]5(C)[C@@]4(F)[C@@H](O)C[C@]3(C)[C@]2(C(=O)CCl)O1 [Halcinonide],45.5,–
CC1(C)O[C@@H]2C[C@H]3[C@@H]4CCC5=CC(=O)CC[C@]5(C)[C@@]4(F)[C@@H](O)C[C@]3(C)[C@]2(C(=O)CCl)O1,49.1,–
COc1cc(/C=C/C(=O)N2CCCCC2=O)cc(OC)c1OC,–,31.8
CCN(CC)C(=O)/C(C#N)=C/c1cc(O)c(O)c([N+](=O)[O-])c1 [Entacapone],134 ± 19,–
C[C@@H]1O[C@@H](OC[C@H]2O[C@@H](Oc3c(-c4ccc(OCCO)c(OCCO)c4)oc4cc(OCCO)cc(O)c4c3=O)[C@H](O)[C@@H](O)[C@@H]2O)[C@H](O)[C@H](O)[C@H]1O,80.1,–
CCCCCCCC/C=C\CCCCCCCC(=O)NCCO [N-Oleoylethanolamine],91.4,–
C[C@@H](O)[C@H]1C(=O)N2C(C(=O)O)=C(S[C@@H]3CN[C@H](C(=O)N(C)C)C3)[C@H](C)[C@H]12,108,–
C[C@@H](O)[C@H]1C(=O)N2C(C(=O)O)=C(S[C@@H]3CN[C@H](C(=O)N(C)C)C3)[C@H](C)[C@H]12 [Meropenem],106 ± 24,–
Cc1cc(C)cc(OCC2CNC(=O)O2)c1 (configuration not stated),82.2,–
CC(=O)O[C@H]1C[C@@H]2CC[C@@H]3[C@H](CC[C@@]4(C)[C@H]3C[C@H]([N+]3(C)CCCCC3)[C@@H]4OC(C)=O)[C@@]2(C)C[C@@H]1N1CCCCC1 [Vecuronium],79.7,–
CC(=O)O[C@H]1C[C@@H]2CC[C@@H]3[C@H](CC[C@@]4(C)[C@H]3C[C@H]([N+]3(C)CCCCC3)[C@@H]4OC(C)=O)[C@@]2(C)C[C@@H]1N1CCCCC1,99 ± 4.6,–
CC(=O)O[C@H]1C[C@@H]2CC[C@@H]3[C@H](CC[C@@]4(C)[C@H]3C[C@H]([N+]3(C)CCCCC3)[C@@H]4OC(C)=O)[C@@]2(C)C[C@@H]1N1CCCCC1 [Vecuronium bromide],119,–
C[C@H]1O[C@@H](n2cc(F)c(=O)[nH]c2=O)[C@H](O)[C@@H]1O [Doxifluridine],91.4,–
C[C@H]1O[C@@H](n2cc(F)c(=O)[nH]c2=O)[C@H](O)[C@@H]1O [5-fluoro-5'-deoxyuridine],93.4,–
C[C@H]1O[C@@H](n2cc(F)c(=O)[nH]c2=O)[C@H](O)[C@@H]1O,75.7,–
